PubChem BioAssay AID602196 – INSERM – 2012
Aim: 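Genes whose knock-down alters cisplatin killing of lung cancer cells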. Cell system: human A549 lung cancer cells. Reagents: siRNA pair against human genes. Timing: 48 h transfection before cisplatin; time from cisplatin to read-out not stated. Treatment: cisplatin at a dose killing half of control-siRNA cells; exact dose and duration not given. Detection: 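Cisplatin cell death as a shift from the 50% death seen with control siRNA; siRNAs toxic or growth-blocking alone scored 0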. Direction: two-siRNA summed score (-2 to +2): higher = both siRNAs protect from cisplatin killing; -2 means both sensitise. Rule for the call: 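siRNAs harmful alone (LDH or WST-1) get 0; others get +1 for less and -1 for more cisplatin killing; genes are active when the two siRNAs give the same sign, summing to ±2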. Meaning of the calls: active = both siRNAs shift cisplatin killing the same way; inactive = no consistent shift, or siRNA harmful alone.
Here is a random part of about 23,000 reagents. Of all reagents, 455 (2%) got an active call. 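Active includes both protection and sensitisation; some change values fall well beyond the stated -50 to +50 range.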 Entries without a mark were called inactive. The numbers tell different reagents against one gene apart. Not all columns of the deposit are shown. Not given: the amount of reagent.

two-siRNA summed score (-2 to +2), by target and reagent
MTARC1: #1 0
CCDC144NL: #1 2 (active)
CLDND1: #1 0
LOC126755: #1 0
MPP2: #1 0
KRT84: #1 -1
ZNF827: #1 0
RTBDN: #1 0
XRCC3: #1 0
OR8H2: #1 0
LOC440986: #1 2 (active)
LOC441005: #1 1
ERVFC1-1: #1 0
PSG8: #1 0
PANX1: #1 0
PTGFRN: #1 0
RPL22: #1 1
ANAPC2: #1 0
LOC387934: #1 1
CPLX4: #1 1
ADAMTS17: #1 0
SOWAHC: #1 0
BNC2: #1 0
ENTPD8: #1 1
APPL2: #1 -1
ZYX: #1 0
CUZD1: #1 0
ILKAP: #1 0
E2F1: #1 0
PCDHA8: #1 0
HNRNPM: #1 0
HNRNPA1P39: #1 0
EXOSC3: #1 1
FBXO39: #1 0
LOC442117: #1 0
SUFU: #1 0
CEP131: #1 0
RAB8A: #1 0
NGRN: #1 0; #2 0
FLJ37266: #1 -1
CNTN6: #1 0
LOC440974: #1 0
MLPH: #1 0
TNN: #1 0
MZB1: #1 0
GUCA1B: #1 -1
CPA4: #1 0
MIR663AHG: #1 1
EEF2K: #1 0
GRHPR: #1 0
LOC388080: #1 1
CACNB1: #1 -1
LOC440445: #1 1
CA9: #1 -1
SLC34A2: #1 0
NSMCE4A: #1 0

Entries listed so far with an active call, once more:
two-siRNA summed score (-2 to +2), by target and reagent
CCDC144NL: #1 2 (active)
LOC440986: #1 2 (active)
